The source of these data is publication PMC4814116, “Design of Novel Relaxase Substrates Based on Rolling Circle Replicases for Bioconjugation to DNA Nanostructures”.

No constants are given. Whether binding was seen depends on the method and setting.

Common to all, as to assay: SEC; Superdex75 10/300 GL; 100 mM Tris-HCl pH 7.6, 500 mM NaCl, 0.1 mM EDTA; each relaxase alone; both purified
In test [1] the target is N-terminal domain (270 residues) of RP4 TraI (plasmid RP4) (UniProt Q00191).
Test [2] deals with N-terminal fragment of RSF1010 MobA (first 186 residues) (plasmid RSF1010) (UniProt P07112).
Test [3] addresses N-terminal relaxase domain of TrwC (residues 1 to 293) of plasmid R388 (plasmid R388) (UniProt Q47673).

B1: N-terminal domain (270 residues) of RP4 TraI (domain or fragment, UniProt Q00191 1-270)
chain: MIAKHVPMRSIKKSDFAELVKYITDEQGKTERLGHVRVTNCEANTLPAVMAEVMATQHGNTRSEADKTYHLLVSFRAGEKPDAETLRAIEDRICAGLGFAEHQRVSAVHHDTDNLHIHIAINKIHPTRNTIHEPYRAYRALADLCATLERDYGLERDNHETRQRVSENRANDMERHAGVESLVGWIKRECLPELQAAQSWEDLHRVLRENGLKLRERGNGFIFEAGDGTTVKASTVSRDLSKPKLEARFGAFTPAEGGEAPRRREYRAKP
With B1, in test [1], the binding entry is reported as “no binding”.

B2: N-terminal fragment of RSF1010 MobA (first 186 residues) (domain or fragment, UniProt P07112 1-186)
chain: MAIYHLTAKTGSRSGGQSARAKADYIQREGKYARDMDEVLHAESGHMPEFVERPADYWDAADLYERANGRLFKEVEFALPVELTLDQQKALASEFAQHLTGAERLPYTLAIHAGGGENPHCHLMISERINDGIERPAAQWFKRYNGKTPEKGGAQKTEALKPKAWLEQTREAWADHANRALERAGH
On to B2, for which the binding entry in test [2] is reported as “no binding”.

B3: N-terminal relaxase domain of TrwC (residues 1 to 293) of plasmid R388 (domain or fragment, UniProt Q47673 1-293)
chain: MLSHMVLTRQDIGRAASYYEDGADDYYAKDGDASEWQGKGAEELGLSGEVDSKRFRELLAGNIGEGHRIMRSATRQDSKERIGLDLTFSAPKSVSLQALVAGDAEIIKAHDRAVARTLEQAEARAQARQKIQGKTRIETTGNLVIGKFRHETSRERDPQLHTHAVILNMTKRSDGQWRALKNDEIVKATRYLGAVYNAELAHELQKLGYQLRYGKDGNFDLAHIDRQQIEGFSKRTEQIAEWYAARGLDPNSVSLEQKQAAKVLSRAKKTSVDREALRAEWQATAKELGIDFS
Regarding B3, the binding entry in test [3] is “no binding”.
